# Laboratory results published in the supplement of paper PMC10849652.
# Protein sequences, listed by entry. Tags and fused reporters are not part of them. Lines headed by an entry give the natural chain unless they say otherwise; changes in a name come on top.
# UniProt Q99732: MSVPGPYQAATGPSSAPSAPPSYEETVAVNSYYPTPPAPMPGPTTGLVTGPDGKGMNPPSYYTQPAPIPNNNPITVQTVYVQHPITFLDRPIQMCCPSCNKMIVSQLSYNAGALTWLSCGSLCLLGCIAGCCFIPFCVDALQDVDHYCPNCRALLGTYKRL
# UniProt Q9H9Z2: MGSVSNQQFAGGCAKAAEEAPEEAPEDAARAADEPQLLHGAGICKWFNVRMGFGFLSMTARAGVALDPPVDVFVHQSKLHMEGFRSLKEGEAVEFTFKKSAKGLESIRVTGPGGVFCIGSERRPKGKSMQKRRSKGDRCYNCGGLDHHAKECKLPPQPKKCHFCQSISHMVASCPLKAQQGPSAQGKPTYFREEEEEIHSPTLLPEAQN
# UniProt Q8N386: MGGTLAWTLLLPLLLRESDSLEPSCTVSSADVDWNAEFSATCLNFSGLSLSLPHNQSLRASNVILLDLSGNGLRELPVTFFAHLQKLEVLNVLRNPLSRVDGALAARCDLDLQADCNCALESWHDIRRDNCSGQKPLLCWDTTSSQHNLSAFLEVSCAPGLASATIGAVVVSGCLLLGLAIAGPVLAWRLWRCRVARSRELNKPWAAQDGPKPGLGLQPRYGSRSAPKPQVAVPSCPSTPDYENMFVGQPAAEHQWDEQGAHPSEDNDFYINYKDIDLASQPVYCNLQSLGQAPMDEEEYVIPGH
# UniProt O95835: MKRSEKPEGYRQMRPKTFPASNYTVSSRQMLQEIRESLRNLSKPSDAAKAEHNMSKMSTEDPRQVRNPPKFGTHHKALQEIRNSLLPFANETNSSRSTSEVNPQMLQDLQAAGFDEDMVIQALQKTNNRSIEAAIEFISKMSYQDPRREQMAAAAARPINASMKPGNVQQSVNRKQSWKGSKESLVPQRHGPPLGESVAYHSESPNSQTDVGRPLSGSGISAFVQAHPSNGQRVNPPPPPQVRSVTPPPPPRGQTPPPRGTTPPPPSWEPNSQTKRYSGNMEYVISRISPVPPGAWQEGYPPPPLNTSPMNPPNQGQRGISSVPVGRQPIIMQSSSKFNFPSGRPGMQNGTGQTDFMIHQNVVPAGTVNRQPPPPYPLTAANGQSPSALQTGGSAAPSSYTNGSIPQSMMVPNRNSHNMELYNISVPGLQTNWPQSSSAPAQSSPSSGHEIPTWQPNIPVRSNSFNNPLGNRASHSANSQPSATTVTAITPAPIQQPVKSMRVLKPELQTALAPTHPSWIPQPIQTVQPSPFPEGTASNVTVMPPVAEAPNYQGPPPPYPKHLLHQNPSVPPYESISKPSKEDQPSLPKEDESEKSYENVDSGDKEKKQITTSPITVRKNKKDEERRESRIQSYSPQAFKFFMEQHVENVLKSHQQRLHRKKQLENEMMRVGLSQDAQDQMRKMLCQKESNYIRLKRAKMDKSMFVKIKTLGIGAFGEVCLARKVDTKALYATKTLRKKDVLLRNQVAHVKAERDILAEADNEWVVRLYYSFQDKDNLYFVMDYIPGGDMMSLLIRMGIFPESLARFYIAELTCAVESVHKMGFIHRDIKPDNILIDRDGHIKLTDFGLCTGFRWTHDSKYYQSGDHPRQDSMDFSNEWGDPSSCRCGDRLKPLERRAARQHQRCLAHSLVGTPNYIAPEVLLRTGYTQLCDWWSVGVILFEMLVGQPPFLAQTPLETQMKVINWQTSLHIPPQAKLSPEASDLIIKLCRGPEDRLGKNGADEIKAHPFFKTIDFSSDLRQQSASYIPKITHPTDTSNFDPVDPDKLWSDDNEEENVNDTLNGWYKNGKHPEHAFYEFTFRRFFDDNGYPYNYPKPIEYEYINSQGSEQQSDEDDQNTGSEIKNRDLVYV
# UniProt Q9BX40: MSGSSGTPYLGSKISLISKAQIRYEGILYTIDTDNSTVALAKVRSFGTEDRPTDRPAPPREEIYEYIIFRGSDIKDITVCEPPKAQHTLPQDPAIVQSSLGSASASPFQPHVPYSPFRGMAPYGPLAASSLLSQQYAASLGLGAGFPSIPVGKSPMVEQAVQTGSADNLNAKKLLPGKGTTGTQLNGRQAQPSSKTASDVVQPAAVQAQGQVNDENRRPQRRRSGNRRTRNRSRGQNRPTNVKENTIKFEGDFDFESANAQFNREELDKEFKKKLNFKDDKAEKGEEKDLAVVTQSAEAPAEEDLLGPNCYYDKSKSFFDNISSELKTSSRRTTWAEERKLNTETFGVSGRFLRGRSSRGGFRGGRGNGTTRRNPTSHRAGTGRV
# UniProt Q9UJU2, whole entry, looked up: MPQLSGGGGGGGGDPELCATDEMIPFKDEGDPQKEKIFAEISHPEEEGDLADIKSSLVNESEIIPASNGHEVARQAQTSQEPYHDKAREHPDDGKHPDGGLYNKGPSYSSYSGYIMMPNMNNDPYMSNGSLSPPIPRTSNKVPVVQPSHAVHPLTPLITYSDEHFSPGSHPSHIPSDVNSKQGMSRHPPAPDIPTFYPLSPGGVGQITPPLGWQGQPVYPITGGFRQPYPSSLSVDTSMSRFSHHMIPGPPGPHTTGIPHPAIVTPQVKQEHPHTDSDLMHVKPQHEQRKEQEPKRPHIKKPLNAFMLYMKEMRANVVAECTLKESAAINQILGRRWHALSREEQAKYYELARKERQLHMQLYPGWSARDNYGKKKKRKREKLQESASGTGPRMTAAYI
# UniProt Q14114: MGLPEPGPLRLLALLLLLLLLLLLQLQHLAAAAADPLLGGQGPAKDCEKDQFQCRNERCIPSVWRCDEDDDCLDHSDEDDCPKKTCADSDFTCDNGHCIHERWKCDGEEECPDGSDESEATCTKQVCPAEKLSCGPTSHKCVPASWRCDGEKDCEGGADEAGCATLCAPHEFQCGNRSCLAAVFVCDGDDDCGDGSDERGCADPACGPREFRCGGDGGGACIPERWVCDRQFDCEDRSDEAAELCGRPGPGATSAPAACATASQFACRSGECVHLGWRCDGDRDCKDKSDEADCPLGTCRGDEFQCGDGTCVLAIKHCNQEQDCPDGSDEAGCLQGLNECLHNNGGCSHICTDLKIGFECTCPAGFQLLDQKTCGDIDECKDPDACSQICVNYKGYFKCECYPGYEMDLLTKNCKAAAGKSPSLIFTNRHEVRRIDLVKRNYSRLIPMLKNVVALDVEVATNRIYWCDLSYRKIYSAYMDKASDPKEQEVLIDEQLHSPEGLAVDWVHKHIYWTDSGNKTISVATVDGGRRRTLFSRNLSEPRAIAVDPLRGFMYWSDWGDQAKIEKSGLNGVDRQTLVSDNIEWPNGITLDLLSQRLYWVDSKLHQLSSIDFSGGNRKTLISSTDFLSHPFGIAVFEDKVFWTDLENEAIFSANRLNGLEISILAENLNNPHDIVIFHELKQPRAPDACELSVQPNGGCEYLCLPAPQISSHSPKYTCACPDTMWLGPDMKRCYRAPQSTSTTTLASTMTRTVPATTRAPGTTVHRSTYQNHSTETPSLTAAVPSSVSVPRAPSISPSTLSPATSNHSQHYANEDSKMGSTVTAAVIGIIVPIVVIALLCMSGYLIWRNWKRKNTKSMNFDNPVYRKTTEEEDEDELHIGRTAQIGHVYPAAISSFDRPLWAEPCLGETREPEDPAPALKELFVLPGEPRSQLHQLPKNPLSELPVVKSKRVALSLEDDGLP
# UniProt O75197: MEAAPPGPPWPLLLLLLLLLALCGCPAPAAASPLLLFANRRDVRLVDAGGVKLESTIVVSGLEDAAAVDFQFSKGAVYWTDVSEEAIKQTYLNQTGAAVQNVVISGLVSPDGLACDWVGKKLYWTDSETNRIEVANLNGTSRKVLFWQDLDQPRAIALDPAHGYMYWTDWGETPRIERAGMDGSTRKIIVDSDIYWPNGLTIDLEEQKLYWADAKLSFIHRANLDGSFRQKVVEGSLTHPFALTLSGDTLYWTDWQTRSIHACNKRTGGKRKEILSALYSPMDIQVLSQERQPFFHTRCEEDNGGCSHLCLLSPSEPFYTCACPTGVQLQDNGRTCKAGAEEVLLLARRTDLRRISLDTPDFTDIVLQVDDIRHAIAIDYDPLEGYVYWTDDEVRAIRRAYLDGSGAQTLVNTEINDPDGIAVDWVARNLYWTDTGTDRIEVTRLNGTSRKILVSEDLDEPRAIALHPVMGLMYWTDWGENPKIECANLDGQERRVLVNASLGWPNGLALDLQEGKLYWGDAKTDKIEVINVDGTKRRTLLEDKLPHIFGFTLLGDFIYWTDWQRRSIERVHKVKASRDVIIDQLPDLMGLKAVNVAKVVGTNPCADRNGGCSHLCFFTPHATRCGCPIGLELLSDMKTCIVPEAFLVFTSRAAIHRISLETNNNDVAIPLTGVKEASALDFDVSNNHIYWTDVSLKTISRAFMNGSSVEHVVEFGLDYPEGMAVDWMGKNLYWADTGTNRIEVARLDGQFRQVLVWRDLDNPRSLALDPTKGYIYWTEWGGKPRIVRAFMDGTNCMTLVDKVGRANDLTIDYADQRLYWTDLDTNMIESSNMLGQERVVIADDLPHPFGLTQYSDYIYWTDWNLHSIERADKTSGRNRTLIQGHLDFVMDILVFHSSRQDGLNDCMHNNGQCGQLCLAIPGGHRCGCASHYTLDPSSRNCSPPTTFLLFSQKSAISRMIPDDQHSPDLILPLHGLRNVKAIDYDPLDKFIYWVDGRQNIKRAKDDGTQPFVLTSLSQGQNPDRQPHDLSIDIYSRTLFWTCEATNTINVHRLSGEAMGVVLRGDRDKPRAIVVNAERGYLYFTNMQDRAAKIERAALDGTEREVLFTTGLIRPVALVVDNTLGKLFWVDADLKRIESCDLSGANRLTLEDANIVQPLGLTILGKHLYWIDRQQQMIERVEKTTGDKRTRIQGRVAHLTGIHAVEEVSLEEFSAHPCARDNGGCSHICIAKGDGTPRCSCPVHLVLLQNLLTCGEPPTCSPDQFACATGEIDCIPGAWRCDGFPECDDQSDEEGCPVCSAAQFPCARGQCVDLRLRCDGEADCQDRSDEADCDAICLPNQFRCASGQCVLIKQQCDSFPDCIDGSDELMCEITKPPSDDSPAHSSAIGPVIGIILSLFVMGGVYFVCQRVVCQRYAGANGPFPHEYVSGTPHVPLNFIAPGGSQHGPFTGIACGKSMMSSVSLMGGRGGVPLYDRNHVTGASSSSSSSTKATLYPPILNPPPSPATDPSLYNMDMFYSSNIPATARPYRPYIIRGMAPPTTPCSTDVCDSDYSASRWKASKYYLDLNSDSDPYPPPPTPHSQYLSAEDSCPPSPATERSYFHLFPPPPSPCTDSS
# UniProt Q86VQ0: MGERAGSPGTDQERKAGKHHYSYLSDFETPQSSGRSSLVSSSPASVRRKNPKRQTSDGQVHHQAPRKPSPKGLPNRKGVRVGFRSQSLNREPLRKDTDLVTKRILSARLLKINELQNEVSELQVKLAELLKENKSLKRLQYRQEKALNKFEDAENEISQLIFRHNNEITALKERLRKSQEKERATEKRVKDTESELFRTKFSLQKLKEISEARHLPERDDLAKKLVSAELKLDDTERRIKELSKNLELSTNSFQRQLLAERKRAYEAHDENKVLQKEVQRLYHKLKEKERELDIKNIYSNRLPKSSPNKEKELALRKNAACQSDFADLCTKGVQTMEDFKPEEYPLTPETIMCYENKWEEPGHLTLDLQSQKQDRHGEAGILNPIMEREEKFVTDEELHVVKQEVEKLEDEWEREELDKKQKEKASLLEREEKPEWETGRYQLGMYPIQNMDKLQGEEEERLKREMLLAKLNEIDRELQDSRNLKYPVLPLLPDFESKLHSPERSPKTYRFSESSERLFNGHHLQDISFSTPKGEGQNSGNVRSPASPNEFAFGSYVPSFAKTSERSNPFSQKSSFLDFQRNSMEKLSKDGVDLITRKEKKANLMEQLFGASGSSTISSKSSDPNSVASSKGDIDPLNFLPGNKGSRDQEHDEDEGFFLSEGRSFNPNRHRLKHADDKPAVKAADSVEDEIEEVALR
# UniProt Q6ZUX7: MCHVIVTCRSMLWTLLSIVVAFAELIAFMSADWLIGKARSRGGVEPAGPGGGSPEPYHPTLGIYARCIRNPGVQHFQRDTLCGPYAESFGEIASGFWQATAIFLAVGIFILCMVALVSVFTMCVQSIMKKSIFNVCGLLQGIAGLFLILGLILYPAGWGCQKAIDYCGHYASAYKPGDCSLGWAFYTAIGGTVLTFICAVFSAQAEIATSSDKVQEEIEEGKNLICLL
# UniProt Q6P5S2: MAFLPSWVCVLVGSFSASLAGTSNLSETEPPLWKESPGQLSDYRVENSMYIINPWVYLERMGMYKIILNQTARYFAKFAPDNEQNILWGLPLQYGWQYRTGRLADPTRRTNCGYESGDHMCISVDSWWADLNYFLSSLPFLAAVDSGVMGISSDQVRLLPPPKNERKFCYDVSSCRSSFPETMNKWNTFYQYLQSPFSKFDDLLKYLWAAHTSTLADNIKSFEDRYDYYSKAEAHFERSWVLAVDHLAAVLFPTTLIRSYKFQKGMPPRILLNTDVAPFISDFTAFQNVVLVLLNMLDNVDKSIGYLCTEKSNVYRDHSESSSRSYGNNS
# UniProt Q969L4: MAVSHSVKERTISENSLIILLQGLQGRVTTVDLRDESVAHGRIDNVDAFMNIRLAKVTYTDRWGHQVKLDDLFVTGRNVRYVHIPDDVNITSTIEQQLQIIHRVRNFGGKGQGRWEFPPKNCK
# Some of the results follow.
# Key:
# Assay in all cases: log2 fold change, soluble protein after heating vs DMSO (PISA); higher = thermal stabilisation; K562 lysate, 10 uM; active = over 0.2 and 3.5 SD of the protein, either way, in both replicates (recomputed)
# vorinostat = compound: O=C(CCCCCCC(=O)Nc1ccccc1)NO [vorinostat]
# Procedure, shortened: (§1)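 Pellets of K562 cells were dounce-homogenised in PBS pH 7.4 with 1 mM MgCl2, and the crude extract was held at 1 mg/mL protein for a 30 min treatment with 10 μM compound. Aliquots were heated for 3 min over 48°C-58°C and pooled before NP-40 was added to 0.5% at 4°C. The supernatant from 21,000xg for 90 min was quantified by TMTpro 16plex LC-MS/MS with channel sums equalised. Values are reported from duplicates as log-two fold change in thermal stability relative to solvent controls.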
# silmitasertib = compound: O=C(O)c1ccc2c(c1)nc(Nc1cccc(Cl)c1)c1ccncc12 [silmitasertib]
# Procedure, shortened: as §1
# [1] = compound: O=C1NC(=O)C(c2cnc3ccccn23)=C1c1cn2c3c(cc(F)cc13)CN(C(=O)N1CCCCC1)CC2
# Procedure, shortened: as §1
# entospletinib = compound: c1cn2cc(-c3ccc4cn[nH]c4c3)nc(Nc3ccc(N4CCOCC4)cc3)c2n1 [entospletinib]
# Procedure, shortened: as §1
# [2] = compound: NCC(=O)Nc1ccc(-n2nc(C(F)(F)F)cc2-c2ccc3c(ccc4ccccc43)c2)cc1
# Procedure, shortened: as §1
Target,log2 fold change (vorinostat),log2 fold change (silmitasertib),log2 fold change [1],log2 fold change (entospletinib),log2 fold change [2]
LITAF (UniProt Q99732),inactive: 0.078,inactive: -0.09,inactive: -0.011,inactive: 0.03,
LIN28A (UniProt Q9H9Z2),inactive: -0.117,inactive: -0.136,,,
LRRC25 (UniProt Q8N386),,,inactive: 0.003,inactive: -0.041,
LRRIQ1 (UniProt Q96JM4),,,active: 0.754,,inactive: 0.056
LATS1 (UniProt O95835),inactive: -0.242,inactive: 0.156,,,
LSM14B (UniProt Q9BX40),inactive: -0.115,inactive: -0.196,inactive: -0.096,,
LRRC7 (UniProt Q96NW7),,,inactive: -0.012,inactive: -0.108,inactive: -0.097
LEF1 (UniProt Q9UJU2),,,inactive: -0.057,,inactive: 0.134
LRP8 (UniProt Q14114),,,inactive: -0.063,inactive: 0.028,inactive: 0.045
LRP6 (UniProt O75581),inactive: 0.229,inactive: 0.069,inactive: 0.061,inactive: -0.052,
LRP5 (UniProt O75197),inactive: 0.158,inactive: -0.107,,inactive: -0.074,
LCA5 (UniProt Q86VQ0),,,inactive: -0.083,inactive: -0.024,inactive: 0.095
LHFPL2 (UniProt Q6ZUX7),,,inactive: 0.031,,
LINGO1 (UniProt Q96FE5),inactive: 0.132,inactive: 0.006,,inactive: -0.031,inactive: 0.044
LBHD1 (UniProt Q9BQE6),,,inactive: 0.139,,
LEG1 (UniProt Q6P5S2),inactive: -0.213,inactive: 0.124,inactive: -0.127,inactive: -0.05,
LSM10 (UniProt Q969L4),inactive: 0.351,inactive: 0.053,,,
LSR isoform 3 (UniProt Q86X29),,,inactive: -0.028,,
LRRC8E (UniProt Q6NSJ5),,,inactive: 0.033,inactive: 0.083,inactive: 0.03

# Quoted from the listing:
# LIN28A (UniProt Q9H9Z2) – log2 fold change (silmitasertib): inactive: -0.136
# LRP8 (UniProt Q14114) – log2 fold change [2]: inactive: 0.045
